Reference: the supplement of paper PMC6078165
The reference is the same well before dosing, and untreated signal decays as well.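 Fibroblast labels denote human fibroblasts, mainly primary ones from uterus (C12385, HUF), lung (H6013), bone (Hs27A), adrenal (HADF) and skin (WS1), plus mammary HMF and breast cancer-associated Hs343T. Cancer cells are basal-like or mesenchymal-like triple-negative breast cancer lines. A hit is a response shift exceeding 3x replicate standard deviation. The tissue of the other fibroblasts is not given here.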

Tested on: MDAMB468
Assay: relative JC-1 red fluorescence (viability) vs pre-drug, coculture with fibroblast (fraction); higher = more viable cancer cells
Protocol: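 JC-1 labelled TNBC cells cocultured 1:1 (1,500 cells each) with CellTrace Violet stained primary or stromal fibroblasts in 384-well plates in FluoroBrite medium, treated with one of 42 anticancer drugs at 0.1, 1, 10 or 100 uM. JC-1 red fluorescence (mitochondrial integrity in cancer cells only) was read by plate reader every 8 h for 72 h. Values are normalised to each well's pre-drug value. The stock of one drug was tenfold lower, so its dose labels may be too high.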

CN(C)CCOc1ccc(/C(=C(/CCCl)c2ccccc2)c2ccccc2)cc1 [Toremifene]
relative JC-1 red fluorescence
Details | 8 h | 16 h | 24 h | 32 h | 40 h | 48 h | 56 h | 64 h | 72 h
0.1 µM, coculture fibroblast: C12385 | 0.859 | 0.766 | 0.7313 | 0.673 | 0.624 | 0.60188 | 0.5566 | 0.5305 | 0.516
0.1 µM, coculture fibroblast: H6013 | 0.8694 | 0.8726 | 0.8358 | 0.82132 | 0.793 | 0.804 | 0.779 | 0.769 | 0.7361
0.1 µM, coculture fibroblast: H6019 | 0.803 | 0.783 | 0.741 | 0.681 | 0.631 | 0.609 | 0.565 | 0.535 | 0.512
0.1 µM, coculture fibroblast: H6076 | 0.94 | 0.966 | 0.916 | 0.905 | 0.824 | 0.81 | 0.774 | 0.7617 | 0.795
0.1 µM, coculture fibroblast: H6231 | 0.838 | 0.946 | 0.835 | 0.839 | 0.795 | 0.771 | 0.728 | 0.703 | 0.699
0.1 µM, coculture fibroblast: HADF | 0.88892 | 0.838 | 0.8046 | 0.7889 | 0.734 | 0.732 | 0.689 | 0.683 | 0.648
0.1 µM, coculture fibroblast: HCFa | 0.84007 | 0.824 | 0.762 | 0.736 | 0.667 | 0.655 | 0.603 | 0.566 | 0.518
0.1 µM, coculture fibroblast: HCPF | 0.899 | 0.912 | 0.873 | 0.86 | 0.787 | 0.763 | 0.716 | 0.71 | 0.693
0.1 µM, coculture fibroblast: HHSteC | 0.874 | 0.834 | 0.7935 | 0.76458 | 0.7104 | 0.7036 | 0.639 | 0.615 | 0.566
0.1 µM, coculture fibroblast: HMF | 0.8376 | 0.963 | 0.879 | 0.8355 | 0.762 | 0.744 | 0.6848 | 0.669 | 0.64
0.1 µM, coculture fibroblast: HPFa | 0.956 | 0.9066 | 0.869 | 0.825 | 0.789 | 0.78 | 0.705 | 0.675 | 0.592
0.1 µM, coculture fibroblast: HUF | 0.9022 | 0.82 | 0.766 | 0.7 | 0.649 | 0.627 | 0.583 | 0.562 | 0.548
0.1 µM, coculture fibroblast: Hs5 | 0.99153 | 0.955 | 0.89 | 0.8653 | 0.7885 | 0.7557 | 0.711 | 0.669 | 0.6758
0.1 µM, coculture fibroblast: Hs27A | 0.857 | 0.813 | 0.744 | 0.743 | 0.669 | 0.65 | 0.605 | 0.579 | 0.543
0.1 µM, coculture fibroblast: Hs343T | 0.92 | 0.94 | 0.898 | 0.878 | 0.804 | 0.778 | 0.736 | 0.728 | 0.705
0.1 µM, coculture fibroblast: WS1 | 0.83431 | 0.744 | 0.676 | 0.603 | 0.555 | 0.522 | 0.492 | 0.465 | 0.454
1 µM, coculture fibroblast: C12385 | 0.898 | 0.8668 | 0.819 | 0.779 | 0.739 | 0.732 | 0.686 | 0.665 | 0.66
1 µM, coculture fibroblast: H6013 | 0.91658 | 0.8862 | 0.853 | 0.839 | 0.801 | 0.804 | 0.782 | 0.77 | 0.725
1 µM, coculture fibroblast: H6019 | 0.886 | 0.834 | 0.801 | 0.746 | 0.706 | 0.684 | 0.63 | 0.598 | 0.574
1 µM, coculture fibroblast: H6076 | 0.9658 | 0.986 | 0.92 | 0.927 | 0.8578 | 0.839 | 0.801 | 0.775 | 0.8186
1 µM, coculture fibroblast: H6231 | 0.846 | 0.953 | 0.879 | 0.871 | 0.815 | 0.79 | 0.742 | 0.711 | 0.705
1 µM, coculture fibroblast: HADF | 0.9201 | 0.8859 | 0.8412 | 0.8336 | 0.775 | 0.768 | 0.72 | 0.7 | 0.6499
1 µM, coculture fibroblast: HCFa | 0.907 | 0.8768 | 0.824 | 0.802 | 0.74 | 0.736 | 0.689 | 0.653 | 0.613
1 µM, coculture fibroblast: HCPF | 0.903 | 0.94 | 0.869 | 0.887 | 0.813 | 0.788 | 0.738 | 0.734 | 0.725
1 µM, coculture fibroblast: HHSteC | 0.916 | 0.891 | 0.8445 | 0.818 | 0.778 | 0.779 | 0.723 | 0.695 | 0.647
1 µM, coculture fibroblast: HMF | 0.866 | 0.868 | 0.9252 | 0.8969 | 0.836 | 0.823 | 0.775 | 0.75 | 0.729
1 µM, coculture fibroblast: HPFa | 0.95 | 0.931 | 0.872 | 0.8167 | 0.782 | 0.784 | 0.712 | 0.684 | 0.604
1 µM, coculture fibroblast: HUF | 0.941 | 0.855 | 0.7939 | 0.715 | 0.656 | 0.612 | 0.567 | 0.538 | 0.515
1 µM, coculture fibroblast: Hs5 | 0.795 | 0.787 | 0.975 | 0.943 | 0.87 | 0.836 | 0.789 | 0.762 | 0.775
1 µM, coculture fibroblast: Hs27A | 0.8853 | 0.8334 | 0.7978 | 0.7959 | 0.736 | 0.721 | 0.682 | 0.657 | 0.614
1 µM, coculture fibroblast: Hs343T | 0.9351 | 0.843 | 0.948 | 0.927 | 0.853 | 0.8284 | 0.7748 | 0.756 | 0.741
1 µM, coculture fibroblast: WS1 | 0.8841 | 0.824 | 0.757 | 0.689 | 0.627 | 0.5874 | 0.551 | 0.523 | 0.515
10 µM, coculture fibroblast: C12385 | 0.9296 | 0.89 | 0.846 | 0.822 | 0.7229 | 0.77 | 0.755 | 0.888 | 0.847
10 µM, coculture fibroblast: H6013 | 0.865 | 0.95 | 0.834 | 0.916 | 0.834 | 0.854 | 0.76 | 0.734 | 0.789
10 µM, coculture fibroblast: H6019 | 0.874 | 0.912 | 0.939 | 0.955 | 0.9118 | 0.809 | 0.851 | 0.949 | 0.938
10 µM, coculture fibroblast: H6076 | 0.9469 | 0.75 | 0.832 | 0.752 | 0.813 | 0.9085 | 0.775 | 0.7155 | 0.801
10 µM, coculture fibroblast: H6231 | 0.808 | 0.793 | 0.87 | 0.836 | 0.751 | 0.906 | 0.79 | 0.804 | 0.801
10 µM, coculture fibroblast: HADF | 0.875 | 0.9439 | 0.97 | 0.915 | 0.846 | 0.837 | 0.803 | 0.725 | 0.822
10 µM, coculture fibroblast: HCFa | 0.877 | 0.951 | 0.823 | 0.873 | 0.814 | 0.84 | 0.886 | 0.869 | 0.8
10 µM, coculture fibroblast: HCPF | 0.8928 | 0.813 | 0.86 | 0.8238 | 0.884 | 0.828 | 0.716 | 0.786 | 0.842
10 µM, coculture fibroblast: HHSteC | 0.907 | 0.825 | 0.79 | 0.853 | 0.83 | 0.712 | 0.84 | 0.797 | 0.783
10 µM, coculture fibroblast: HMF | 0.867 | 0.852 | 0.874 | 0.799 | 0.868 | 0.811 | 0.826 | 0.8373 | 0.713
10 µM, coculture fibroblast: HPFa | 0.919 | 0.89 | 0.74 | 0.856 | 0.793 | 0.854 | 0.808 | 0.839 | 0.799
10 µM, coculture fibroblast: HUF | 0.91 | 0.897 | 0.925 | 0.914 | 0.934 | 0.853 | 0.837 | 0.9056 | 0.804
10 µM, coculture fibroblast: Hs5 | 0.851 | 0.72 | 0.8148 | 0.873 | 0.7814 | 0.8658 | 0.811 | 0.809 | 0.815
10 µM, coculture fibroblast: Hs27A | 0.867 | 0.919 | 0.939 | 0.844 | 0.854 | 0.925 | 0.859 | 0.824 | 0.834
10 µM, coculture fibroblast: Hs343T | 0.934 | 0.798 | 0.884 | 0.8 | 0.873 | 0.791 | 0.755 | 0.761 | 0.745
10 µM, coculture fibroblast: WS1 | 0.9299 | 0.969 | 0.853 | 0.841 | 0.8508 | 0.817 | 0.879 | 0.824 | 0.896
100 µM, coculture fibroblast: C12385 | 0.438 | 0.306 | 0.246 | 0.199 | 0.159 | 0.144 | 0.107 | 0.0805 | 0.0591
100 µM, coculture fibroblast: H6013 | 0.555 | 0.4321 | 0.383 | 0.345 | 0.312 | 0.2909 | 0.24 | 0.2045 | 0.1488
100 µM, coculture fibroblast: H6019 | 0.52 | 0.401 | 0.36 | 0.326 | 0.291 | 0.274 | 0.243 | 0.22 | 0.207
100 µM, coculture fibroblast: H6076 | 0.53 | 0.424 | 0.393 | 0.388 | 0.303 | 0.278 | 0.233 | 0.194 | 0.225
100 µM, coculture fibroblast: H6231 | 0.736 | 0.582 | 0.52 | 0.618 | 0.57 | 0.504 | 0.446 | 0.534 | 0.466
100 µM, coculture fibroblast: HADF | 0.549 | 0.407 | 0.356 | 0.322 | 0.2881 | 0.2679 | 0.2233 | 0.1949 | 0.1377
100 µM, coculture fibroblast: HCFa | 0.635 | 0.522 | 0.464 | 0.43 | 0.39 | 0.373 | 0.32 | 0.281 | 0.223
100 µM, coculture fibroblast: HCPF | 0.963 | 0.969 | 0.833 | 0.703 | 0.72 | 0.695 | 0.653 | 0.638 | 0.637
100 µM, coculture fibroblast: HHSteC | 0.47 | 0.379 | 0.331 | 0.283 | 0.254 | 0.245 | 0.185 | 0.157 | 0.11
100 µM, coculture fibroblast: HMF | 0.9177 | 0.9803 | 0.9416 | 0.9428 | 0.86401 | 0.87 | 0.833 | 0.816 | 0.811
100 µM, coculture fibroblast: HPFa | 0.73422 | 0.617 | 0.5565 | 0.4858 | 0.4615 | 0.4539 | 0.378 | 0.3478 | 0.2756
100 µM, coculture fibroblast: HUF | 0.489 | 0.339 | 0.295 | 0.248 | 0.212 | 0.193 | 0.154 | 0.131 | 0.11
100 µM, coculture fibroblast: Hs5 | 0.86 | 0.79 | 0.9682 | 0.9459 | 0.86836 | 0.847 | 0.821 | 0.7898 | 0.82377
100 µM, coculture fibroblast: Hs27A | 0.539 | 0.381 | 0.325 | 0.296 | 0.2639 | 0.2474 | 0.2125 | 0.184 | 0.131
100 µM, coculture fibroblast: Hs343T | 0.701 | 0.595 | 0.412 | 0.396 | 0.317 | 0.296 | 0.255 | 0.23 | 0.216
100 µM, coculture fibroblast: WS1 | 0.4288 | 0.293 | 0.245 | 0.204 | 0.166 | 0.141 | 0.116 | 0.0921 | 0.0736
